# Inconclusive means that the source gave no clear call. Such entries were picked first, then a sample of the others. Potencies of inconclusive entries are doubtful fits and often do not repeat. A note “side channel” means that the fit belongs to a control or component signal, not to the main read-out. Active and inactive are the calls of the source. Calls follow the shape of the dose curve; as a rule, active = well fitted inhibition curve with a large enough effect in the signal ratio, with a control signal flat; inconclusive = small, poorly fitted or top-dose-only effect, or effect the other way; inactive = flat fitted curve, though single readings scatter; the % refers to the signal ratio.
# Test: Confirmation Concentration-Response Assay for Identification of Small Molecule Antagonists of Stat Signaling Pathway
# Details: SIE-bla cells, IL-6 stimulated, beta-lactamase ratio, 5 h; activity change, negative = inhibition: at 38.3 µM (top of the series)
# Excerpt: NIH Molecular Libraries Screening Centers Network [MLSCN] NIH Chemical Genomics Center [NCGC] MLSCN Grant: None NCGC Assay Overview: This assay is a retest of actives identified from the Stat signaling pathway assay (PubChem AID 446). The Stat assay is cell-based and measures Interleukin 6 (IL-6) mediated modulation of a beta-lactamase reporter gene controlled by a STAT inducible element (SIE-bla cells, Invitrogen). IL-6 is a cytokine that signals via the JAK/STAT pathway and is implicated in cancer and inflammation. SIE-bla cells are induced by IL-6 at 40 pM EC50 and inhibited by the pan JAK inhibitor, 2-(1,1-Dimethylethyl)-9-fluoro-3,6-dihydro-7H-benz[h]-imidaz[4,5-f]isoquinolin-7-one, at approximately 10 nM IC50. Plated cells were incubated overnight and on the following day, stimulated with 40 pM IL-6 for 5 hrs. The assay was stimulated with an EC50 of IL-6 to retest inhibitors of STAT signaling.
# NCGC Assay Protocol Summary: Cells were trypsinized, washed in assay medium (AM, OPTI MEM with 0.5% fetal bovine serum, 0.1 mM nonessential amino acids, 1 mM sodium pyruvate, 10mM HEPES pH 7.3, 100U/ml penicillin, and 100 ug/ml streptomycin) and suspended at […] in AM. Approximately 2500 cells in 5 uL/well was dispensed into 1536-well plates and the cells were incubated overnight at 37 C. 23 nL of compound were delivered by a pin tool and 1 uL of IL-6 (40 pM final concentration in AM) was added. After plates were incubated at 37 C for 5 hrs, 1uL of detector mix (LiveBLAzerTM, Invitrogen) was added, the plates incubated at room temperature for 2.5 hrs, and fluorescence intensity at 460 and 530 nm emissions was measured at 405 nm excitation by an Envision (Perkin Elmer).
SMILES,Potency,"activity change, negative = inhibition"
COc1ccc2c3c([nH]c2c1)C(C)=NCC3,"inconclusive: 15.8 µM [fluorescent, side channel]",–
O=c1c(O)c(-c2ccc(O)c(O)c2)oc2cc(O)cc(O)c12,"inconclusive: 2.51 µM [inhibitor, full curve, poor fit]",–
COc1ccc(C[C@@H]2C(=O)N[C@H](C)C(=O)N(C)[C@@H]3C(=O)N(C)[C@@H](Cc4ccc(O)c(c4)Oc4ccc(cc4)[C@H]3O)C(=O)N[C@@H](C)C(=O)N[C@H](C)C(=O)N2C)cc1,active: 0.398 µM,–
O=c1ccc2cc(O[C@H]3O[C@@H](CO)[C@@H](O)[C@@H](O)[C@@H]3O)c(O)cc2o1,"inconclusive: 15.8 µM [fluorescent, side channel, partial curve, poor fit]",–
c1ccc2c(c1)[I+]c1ccccc1-2,"inconclusive: 15.8 µM [rising, full curve]",–
CC(C)[C@H](CO)Nc1nc(Nc2cccc(Cl)c2)c2ncn(C(C)C)c2n1,active: 5.01 µM,–
CN(N=O)c1ccc(O)c(O)c1,–,inconclusive: 31.5%
COC(=O)C(O)(c1ccc(NC(=O)c2ccco2)c(OC)c1)C(F)(F)F (stereo not given),–,inconclusive: -12%
C[C@]1(C(=O)O)[C@@H]2CC[C@@H](O2)[C@@]1(C)C(=O)O,active: 10 µM,–
CC[C@@H]1CN2CCc3cc(OC)c(OC)cc3[C@H]2C[C@@H]1C[C@@H]1NCCc2cc(OC)c(OC)cc21,active: 0.398 µM,–
COc1cccc2c1C(=O)c1c(O)c3c(c(O)c1C2=O)C[C@](O)(/C(C)=N\O)C[C@@H]3O[C@H]1C[C@H](N)[C@@H](O)[C@H](C)O1,"inconclusive: 6.31 µM [side channel, falling, full curve, poor fit]",–
COC1=C(C)C(=O)c2c(c(COC(N)=O)c3n2C[C@@H]2[C@@H]3N2C)C1=O (stereo not given in full),"inconclusive: 10 µM [cytotoxic, side channel, full curve]",–
CCn1cnc2c(Nc3cccc(Cl)c3)nc(N[C@@H]3CCCC[C@H]3N)nc21,active: 3.98 µM,–
CC[C@]1(O)C(=O)OCc2c1cc1n(c2=O)Cc2cc3ccccc3nc2-1,"inconclusive: 25.1 µM [inhibitor, single point]",–
CC(C)C[C@H]1C(=O)N2CCC[C@H]2[C@]2(O)O[C@](NC(=O)[C@@H]3C=C4c5cccc6[nH]c(Br)c(c56)CC4N(C)C3)(C(C)C)C(=O)N12 (stereo not given in full),active: 12.6 µM,–

# Complete entries, looked up by structure.
# COC1=C(C)C(=O)c2c(c(COC(N)=O)c3n2C[C@@H]2[C@@H]3N2C)C1=O (stereo not given in full) reads Potency: inconclusive: 10 µM [cytotoxic, side channel, full curve]
# COc1ccc(C[C@@H]2C(=O)N[C@H](C)C(=O)N(C)[C@@H]3C(=O)N(C)[C@@H](Cc4ccc(O)c(c4)Oc4ccc(cc4)[C@H]3O)C(=O)N[C@@H](C)C(=O)N[C@H](C)C(=O)N2C)cc1 reads Potency: active: 0.398 µM

# — PubChem BioAssay AID922 (National Center for Advancing Translational Sciences (NCATS), 2007)
